Five sequences from paper PMC9170038 can be followed below.

Protein sequences can lack the tags named with them.

In this series the target is T1, MS2 coat protein, dlFG mutant del68-81insG (Escherichia phage MS2) (UniProt P03612).
T1 sequence (looked up, limits assumed): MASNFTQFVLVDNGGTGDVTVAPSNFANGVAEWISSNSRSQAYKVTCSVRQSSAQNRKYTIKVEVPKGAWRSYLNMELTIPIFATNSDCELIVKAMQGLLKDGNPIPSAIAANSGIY
The experiment in a line: binding assay. The note with it: 4 mM Mg2+, RNA-MaP array, 100 mM Tris-HCl pH 7.5, 80 mM KCl, 4 mM MgCl2, 0.1 mg/mL BSA, 1 mM DTT, 0.01 mg/mL yeast tRNA, 0.01% Tween-20, protein 1.5 nM to 3 uM, 37 C (Table S3), purified recombinant protein.

Turning to “AAUGUGUGUCGAGGAUAUAUAACAUGACAACAAACACAUACAUGAGGAUCACCCAUGUCCCAUGUAUAGAAGGCGAUGUGUGUG [Eterna 6134751 (Same State NG 2)]”, under “no ligand”, the Kd is greater than 3000 nM. Turning to “CUAUCGAGGUAACUCGCUAUCACACCAGAAGGGACGGAGGCACAUGAGGAUCACCCAUGUCCUAGUCAGGAUAUGGGUGAGUAG [Eterna 6439008 (Inverted Small Loop Same State NG 3)]”, the Kd (no ligand) is greater than 3000 nM.

Regarding “GAGCGCGUGGACUGGCGUGCUCCGCUCCGUCGAGGACCGGUACGGCCGCCACUCGACAUGAGGAUCACCCAUGUGUGCGCUCGCG [Eterna 7732704 (Exclusion - Tryptophan A)]”, the equilibrium dissociation constant (Kd) (no ligand) was greater than 3000 nM.

Regarding “UCAUAACAUGAGGAUCACCCAUGUCAGGAUAUGAUACUAUGUACUUCGGUACAUAGUAUCAGAAGGGACAUGCU [Eterna 9252 (Exclusion 1)]”, the Kd (FMN 200 uM) is greater than 3000 nM. On to “UGAGCGACCACAGGAUAUACUUGAGAAGACCGAGUAGAAGGGUGGAAGAGCAUGCAGUGACAUGAGGAUCACCCAUGUGGUUGG [Eterna 6428796 (Same State NG 1)]”, for which the Kd (no ligand) is greater than 3000 nM.
